Some of the results follow. The main result of the screen is listed elsewhere. These columns were measured beside it and carry no call. The list favours compounds with an active or inconclusive main result. Potencies come from curve fits of mixed quality, noted in brackets.
Test: qHTS Assay for Lipid Storage Modulators in Drosophila S3 Cells;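 for cell number change: cells counted by Cell Tracker Red CMTPX staining in the red channel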
Details: BODIPY lipid droplet fluorescence, 18-24 h; for cell number change: measured here: cell count max response, cells fed with added oleic acid
Outline: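 Laser-scanning cytometry quantifies lipid droplet accumulation (500–530 nm total intensity; droplet/cell object ratio) in oleic acid-fed (400 uM added) Drosophila S3 cells treated with a concentration series. 20 uM Triacsin C defined 100% inhibition.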

[1] = measured here: lipid fluorescence (Fed channel) AC50, cells fed with added oleic acid
[2] = measured here: cell number channel AC50, cells fed with added oleic acid

| Compound | cell number change | AC50 [1] | AC50 [2] |
| --- | --- | --- | --- |
| COc1ccc(NC(=O)c2cncc(Br)c2)cc1S(N)(=O)=O | -3.52% | 0.13 µM [falling, full curve, poor fit] |  |
| Cc1nn(Cc2ccc(F)cc2)c(C)c1NC(=O)C1c2ccccc2Oc2ccccc21 | -33.3% | 20.6 µM [falling, partial curve] | 13 µM [falling, partial curve, poor fit] |
| Cn1ccnc1C1CCCCN1C(=O)c1cc(COc2ccc(F)cc2Cl)on1 (stereo not drawn) | -5.86% | 0.92 µM [rising, single point] |  |
| COC(C(=O)Nc1ccnn1C1CCN(C(=O)c2ccc(C)cc2)CC1)c1ccccc1 (stereo not drawn) |  |  | 6.51 µM [falling, partial curve] |
| CC1CN(C(=O)c2cc3c(=O)n4ccccc4nc3s2)CC(C)O1 (stereo not drawn) | 10.9% | 14.6 µM [rising, single point] |  |
| COc1ccc(NC(=O)Nc2cccc3ccccc23)c(OC)c1 | 22.6% | 5.8 µM [rising, partial curve] |  |
| O=S(=O)(NCCc1ccccc1)c1ccc(Br)cc1 | -7.94% | 0.291 µM [rising, full curve, poor fit] |  |
| O=C(COC(=O)c1ccc(O)cc1)Nc1ccc(Cl)cc1 | 32.5% |  |  |
| Cc1ccc(S(=O)(=O)N2[C@@H](c3ccccc3F)C(C(=O)O)=CC[C@H]2c2cccc(C)c2)cc1 | -21.6% |  |  |
| CCOc1ccc(S(=O)(=O)NC(C)C)cc1C(N)=O | 19.3% | 0.092 µM [falling, full curve, poor fit] | 0.116 µM [falling, full curve, poor fit] |
| N=C1CCCN1CC(=O)c1cccs1 | -9.24% |  | 2.59 µM [rising, single point] |
| Cc1ccc(-n2nc(C)c(C(=O)Nc3cccc(C(=O)NC4CC4)c3)n2)c(C)c1 | -9.8% | 0.82 µM [rising, single point] |  |
| COc1ccc2[nH]cc(CCNC(=O)c3ccc([N+](=O)[O-])cc3)c2c1 | -6.01% | 5.17 µM [falling, single point] |  |
| COc1ccc(Oc2c(C)nc(SCC(=O)c3ccc(Cl)cc3)[nH]c2=O)cc1 | -8.13% |  | 0.103 µM [falling, full curve, poor fit] |
| CC[n+]1ccccc1/C=C/c1ccc(N(C)C)cc1 | -104% | 18.4 µM [falling, partial curve] | 20.6 µM [falling, partial curve] |
| COc1ccc(C)cc1NC(=O)COC(=O)c1ccc2ccccc2n1 | -2.63% | 18.4 µM [rising, single point] |  |
| C=CCn1c(N)cc(=O)nc1SCC(=O)Nc1ccc(C(=O)OC)cc1 | -1.39% | 29.1 µM [rising, single point] |  |
| COc1ccccc1N=Nc1nc(-c2ccccc2)c(-c2ccccc2)[nH]1 | -34.1% | 25.9 µM [falling, single point] | 29.1 µM [falling, single point] |
| O=C(CCCN1CCC(c2ccccc2)C1)c1ccc2c(c1)OCCO2 (stereo not drawn) | 15.1% | 4.11 µM [falling, single point] |  |
| Cc1cc(NC(=O)CSc2nc3ccccc3c(=O)n2Cc2ccccc2)no1 | 28.6% | 1.84 µM [rising, full curve] | 0.82 µM [rising, full curve, poor fit] |
| CCOc1ccc(Br)cc1/C=N/O | 98% |  | 29.1 µM [rising, single point] |

For reference, 18 of the compounds above:

| Compound | cell number change | AC50 [1] | AC50 [2] |
| --- | --- | --- | --- |
| Cc1nn(Cc2ccc(F)cc2)c(C)c1NC(=O)C1c2ccccc2Oc2ccccc21 | -33.3% | 20.6 µM [falling, partial curve] | 13 µM [falling, partial curve, poor fit] |
| Cn1ccnc1C1CCCCN1C(=O)c1cc(COc2ccc(F)cc2Cl)on1 (stereo not drawn) | -5.86% | 0.92 µM [rising, single point] |  |
| COC(C(=O)Nc1ccnn1C1CCN(C(=O)c2ccc(C)cc2)CC1)c1ccccc1 (stereo not drawn) |  |  | 6.51 µM [falling, partial curve] |
| CC1CN(C(=O)c2cc3c(=O)n4ccccc4nc3s2)CC(C)O1 (stereo not drawn) | 10.9% | 14.6 µM [rising, single point] |  |
| COc1ccc(NC(=O)Nc2cccc3ccccc23)c(OC)c1 | 22.6% | 5.8 µM [rising, partial curve] |  |
| O=S(=O)(NCCc1ccccc1)c1ccc(Br)cc1 | -7.94% | 0.291 µM [rising, full curve, poor fit] |  |
| O=C(COC(=O)c1ccc(O)cc1)Nc1ccc(Cl)cc1 | 32.5% |  |  |
| Cc1ccc(S(=O)(=O)N2[C@@H](c3ccccc3F)C(C(=O)O)=CC[C@H]2c2cccc(C)c2)cc1 | -21.6% |  |  |
| CCOc1ccc(S(=O)(=O)NC(C)C)cc1C(N)=O | 19.3% | 0.092 µM [falling, full curve, poor fit] | 0.116 µM [falling, full curve, poor fit] |
| N=C1CCCN1CC(=O)c1cccs1 | -9.24% |  | 2.59 µM [rising, single point] |
| Cc1ccc(-n2nc(C)c(C(=O)Nc3cccc(C(=O)NC4CC4)c3)n2)c(C)c1 | -9.8% | 0.82 µM [rising, single point] |  |
| COc1ccc2[nH]cc(CCNC(=O)c3ccc([N+](=O)[O-])cc3)c2c1 | -6.01% | 5.17 µM [falling, single point] |  |
| COc1ccc(Oc2c(C)nc(SCC(=O)c3ccc(Cl)cc3)[nH]c2=O)cc1 | -8.13% |  | 0.103 µM [falling, full curve, poor fit] |
| CC[n+]1ccccc1/C=C/c1ccc(N(C)C)cc1 | -104% | 18.4 µM [falling, partial curve] | 20.6 µM [falling, partial curve] |
| COc1ccc(C)cc1NC(=O)COC(=O)c1ccc2ccccc2n1 | -2.63% | 18.4 µM [rising, single point] |  |
| C=CCn1c(N)cc(=O)nc1SCC(=O)Nc1ccc(C(=O)OC)cc1 | -1.39% | 29.1 µM [rising, single point] |  |
| COc1ccccc1N=Nc1nc(-c2ccccc2)c(-c2ccccc2)[nH]1 | -34.1% | 25.9 µM [falling, single point] | 29.1 µM [falling, single point] |
| O=C(CCCN1CCC(c2ccccc2)C1)c1ccc2c(c1)OCCO2 (stereo not drawn) | 15.1% | 4.11 µM [falling, single point] |  |

Next part

| Compound | cell number change | AC50 [1] | AC50 [2] |
| --- | --- | --- | --- |
| COc1ccc(Cl)cc1C(=O)Nc1ccc(NC(=O)c2ccco2)cc1 | 21.8% |  | 0.13 µM [rising, full curve, poor fit] |
| COc1ccc2nc3ccccc3nc2c1N | -49% |  | 32.6 µM [falling, single point] |
| CN1CCN(c2ccc(NC(=O)c3ccc4c(c3)OCCO4)cc2)CC1 | 8.6% |  |  |
| COc1cc2ccc(=O)oc2c(O[C@@H]2O[C@H](CO)[C@@H](O)[C@H](O)[C@H]2O)c1O | 1.39% | 29.1 µM [falling, partial curve, poor fit] |  |
| CC(Cc1ccccc1)NC(=O)CN1C(=O)c2ccccc2S1(=O)=O (stereo not drawn) | 34.6% | 0.291 µM [rising, partial curve, poor fit] |  |
| CCc1nnc(NC(=O)[C@@H]2CCCN2S(=O)(=O)c2ccc3c(c2)OCCO3)s1 | -2.76% | 6.51 µM [falling, partial curve] |  |
| CS(=O)(=O)N(Cc1ccccc1)c1ccccc1C(=O)O | -17.7% | 3.26 µM [falling, full curve, poor fit] |  |
| COc1ccc(C(=O)Nc2c(Cl)cc(Cl)cc2C(=O)N2CCC(C)CC2)cc1 | 4.08% | 4.11 µM [rising, single point] |  |
| Cc1nn(-c2ccc(Cl)cc2Cl)c(C)c1C(=O)O | 15.6% |  |  |
| O=S(=O)(c1cccc(-c2n[nH]c(=S)n2Cc2ccccc2)c1)N1CCOCC1 | 9.29% | 14.6 µM [rising, single point] | 4.11 µM [rising, single point] |
| CCCn1c(=O)c2ccccc2n2c(=S)[nH]nc12 | -47.6% | 14.6 µM [falling, partial curve] | 11.6 µM [falling, partial curve] |
| Cc1ccccc1Nc1c(-c2ccncc2)nc2ccc(Br)cn12 | 4.65% | 13 µM [rising, partial curve, poor fit] |  |
| COc1cccc(COC(=O)C2CCN(S(=O)(=O)c3ccc(C)cc3)CC2)c1OC | 31.7% | 20.6 µM [rising, single point] | 11.6 µM [rising, single point] |
| Cc1nc2ccc(Cl)cc2c(-c2ccccc2Cl)c1CC(=O)O | 1.64% | 13 µM [rising, partial curve, poor fit] |  |
| CCOc1ccc(C2=Nn3c(nnc3-c3ccccc3OC)SC2)cc1 | -12.2% |  |  |
| O=C(N/N=C/c1ccc(OC(F)F)cc1OC(F)F)NC1CCCCC1 | -45.2% |  | 2.31 µM [rising, partial curve] |
| CCCCNS(=O)(=O)c1ccc(OC)cc1 | 1.42% | 2.91 µM [falling, partial curve, poor fit] |  |
| CCc1cc2c(=O)c(-n3cnc4ccccc43)coc2cc1O | -22.1% |  |  |
| CCOc1ccc2[nH]c(SCC(=O)OC)c([N+](=O)[O-])c2c1 | -12.5% |  |  |
| Cc1ccc(C)n1NC(=O)c1ccccc1O | -5.13% | 7.31 µM [rising, partial curve, poor fit] |  |
| O=C(CSc1nnc2ccc(-c3ccccn3)nn12)Nc1ccccc1F | 21.6% | 1.03 µM [rising, full curve] |  |

| Compound | cell number change | AC50 [1] | AC50 [2] |
| --- | --- | --- | --- |
| O=C1OCc2ccc(NC(=O)c3sccc3Cl)cc21 | 28.4% | 0.517 µM [rising, partial curve, poor fit] |  |
| COC(=O)c1c(NC(=O)c2ccccc2)sc(Cc2ccccc2)c1C |  | 0.291 µM [rising, full curve] | 0.82 µM [rising, single point] |
| C(=N\Nc1nncc2ccccc12)/c1ccccn1 | 6.67% |  |  |
| COc1ccccc1CNC(=O)CCS(=O)(=O)c1cccs1 |  |  | 0.58 µM [falling, single point] |
| Cc1nnc(SCC(=O)Nc2ccc(C(N)=O)cc2)n1-c1ccccc1 | 13.2% |  |  |
| O=C(CN1C(=O)C2C3C=CC(C3)C2C1=O)OCC(=O)c1ccc(Br)cc1 (stereo not drawn) | -15.5% |  |  |
| COc1ccc(OCC(=O)N(Cc2ccc(C)o2)C2CCS(=O)(=O)C2)cc1 (stereo not drawn) | 6.65% | 0.103 µM [falling, full curve, poor fit] |  |
| COc1ccc(C2C(C(=O)N3CCOCC3)=C(C)NC3=C2C(=O)CC(C)(C)C3)cc1O (stereo not drawn) | -5.83% |  |  |
| CCOC(=O)C1CCN(C(=O)CSc2cc(=O)n(CC)c3ccccc23)CC1 |  | 0.291 µM [rising, partial curve, poor fit] | 1.46 µM [rising, partial curve] |
| CC(C)C(O)(CC#CCN1CCCC1)c1ccccc1 (stereo not drawn) | -45.9% |  | 6.51 µM [falling, full curve, poor fit] |
| O=C(NCCCn1ccnc1)c1cc(C2CC2)on1 | 19% | 5.8 µM [rising, full curve] |  |
| O=C(c1cc2cc(Br)ccc2oc1=O)N1CCN(c2ccccn2)CC1 | 1.37% |  |  |
| Cc1nnc(SCC(=O)c2ccc(C(C)C)cc2)s1 | 3.08% | 29.1 µM [falling, single point] |  |
| Cc1ccc(S(=O)(=O)N2CCc3ccccc3C2)cc1C | -24.1% |  |  |
| Cc1c(CC(=O)N2CCN(C(=O)C3COc4ccccc4O3)CC2)c(=O)oc2c(O)c(O)ccc12 (stereo not drawn) | -30.1% | 6.51 µM [falling, partial curve, poor fit] | 5.8 µM [falling, single point] |
| COc1ccc(NC(=O)CN(C)Cc2c(F)cccc2Cl)cc1S(=O)(=O)N1CCCCC1 | 37.4% | 0.651 µM [rising, full curve, poor fit] | 1.3 µM [rising, full curve] |
| Cn1c(=O)c2c(ncn2CC(=O)N2CCOCC2)n(C)c1=O | -30.8% | 23.1 µM [falling, partial curve, poor fit] | 0.651 µM [falling, full curve, poor fit] |
| O=C(c1cn(-c2ccccc2)nc1-c1cccnc1)N1CCN(S(=O)(=O)c2ccccc2F)CC1 | -27.4% |  |  |
| c1cc(-c2nnc3sc(C4CCCCC4)nn23)ccn1 | -9.22% |  |  |
| CCOC(=O)C1=CC[C@]2(C)c3c(c4ccccc4n3C)C(=O)C1N2C | 11% | 29.1 µM [falling, single point] |  |

— PubChem BioAssay AID2685 (National Center for Advancing Translational Sciences (NCATS), 2010)
